We go through one molecule from paper PMC7314798.

These are yes or no findings as the source states them, for the method shown. Sequences can lack the tags named with a protein.

This test has as its target T1, recombinant, LPS-free His-tagged human GBP1 (guanylate-binding protein 1) (human), P32455.
T1 chain: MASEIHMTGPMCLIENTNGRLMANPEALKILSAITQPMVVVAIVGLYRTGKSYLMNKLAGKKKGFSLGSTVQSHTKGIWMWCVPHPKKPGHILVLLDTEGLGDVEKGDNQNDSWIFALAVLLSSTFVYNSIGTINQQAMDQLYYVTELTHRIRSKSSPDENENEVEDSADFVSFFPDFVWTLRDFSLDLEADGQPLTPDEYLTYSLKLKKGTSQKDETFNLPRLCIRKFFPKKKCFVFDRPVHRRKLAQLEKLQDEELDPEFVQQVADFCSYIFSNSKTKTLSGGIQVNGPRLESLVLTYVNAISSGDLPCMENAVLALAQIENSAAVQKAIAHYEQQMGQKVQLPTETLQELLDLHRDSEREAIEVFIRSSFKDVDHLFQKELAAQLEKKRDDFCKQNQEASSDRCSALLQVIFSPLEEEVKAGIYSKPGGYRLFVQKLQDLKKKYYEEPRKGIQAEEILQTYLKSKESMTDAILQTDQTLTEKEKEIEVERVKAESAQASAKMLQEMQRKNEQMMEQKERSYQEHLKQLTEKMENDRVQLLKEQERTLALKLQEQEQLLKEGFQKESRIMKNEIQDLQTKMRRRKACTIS
The experiment in a line: SEC; Superdex 200 10/30 GL, running buffer 50 mM Tris pH 7.4, 150 mM NaCl; GBP1 (1 µM) kept on ice alone for 5 h before injection; size estimated with molecular weight standards; both purified. The conditions noted are these: remark: other sources report otherwise.

B1: recombinant, LPS-free His-tagged human GBP1 (guanylate-binding protein 1), P32455 1-592 (protein)
chain: MASEIHMTGPMCLIENTNGRLMANPEALKILSAITQPMVVVAIVGLYRTGKSYLMNKLAGKKKGFSLGSTVQSHTKGIWMWCVPHPKKPGHILVLLDTEGLGDVEKGDNQNDSWIFALAVLLSSTFVYNSIGTINQQAMDQLYYVTELTHRIRSKSSPDENENEVEDSADFVSFFPDFVWTLRDFSLDLEADGQPLTPDEYLTYSLKLKKGTSQKDETFNLPRLCIRKFFPKKKCFVFDRPVHRRKLAQLEKLQDEELDPEFVQQVADFCSYIFSNSKTKTLSGGIQVNGPRLESLVLTYVNAISSGDLPCMENAVLALAQIENSAAVQKAIAHYEQQMGQKVQLPTETLQELLDLHRDSEREAIEVFIRSSFKDVDHLFQKELAAQLEKKRDDFCKQNQEASSDRCSALLQVIFSPLEEEVKAGIYSKPGGYRLFVQKLQDLKKKYYEEPRKGIQAEEILQTYLKSKESMTDAILQTDQTLTEKEKEIEVERVKAESAQASAKMLQEMQRKNEQMMEQKERSYQEHLKQLTEKMENDRVQLLKEQERTLALKLQEQEQLLKEGFQKESRIMKNEIQDLQTKMRRRKACTIS
Consider B1, for which the binding result is “no binding (tested: 1 µM)”.
